Data as given in patent US11981719 (ALTEOGEN, dated 2024).
Results are given in words; binding and its absence hold for the method and conditions named. Some entries that bind do so weakly or less than the wild type.

T1: recombinant hGH receptor Fc chimera (human, UniProt P10912 19-264)
T1 construct: also called hGH receptor chimera; not shown: Fc part of the chimera
T1 sequence (looked up): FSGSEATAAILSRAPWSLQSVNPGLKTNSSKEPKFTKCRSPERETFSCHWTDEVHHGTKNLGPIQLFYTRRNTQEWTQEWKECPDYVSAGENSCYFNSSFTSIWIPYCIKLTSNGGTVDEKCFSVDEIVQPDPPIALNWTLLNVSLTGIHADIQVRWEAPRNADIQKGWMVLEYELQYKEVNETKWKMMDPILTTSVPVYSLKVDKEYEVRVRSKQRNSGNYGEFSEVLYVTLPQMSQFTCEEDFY


These binders were tested against T1, recombinant hGH receptor Fc chimera (assay: ELISA on plate-coated recombinant hGH receptor Fc chimera).

Binder	binding
hGH-A4 (ligand, also called hGHRA-NexP) FPTIPLSRLFDNAMLRADRLNQLAFDTYQEFEEAYIPKEQKYSFLQNPQTSLCFSESIPTPSNREETQQKSNLELLRISLLLIQSWLEPVQFLRSVFANSLVYGASDSNVYDLLKDLEEKIQTLMGRLEDGSPRTGQIFKQTYSKFDTNSHNDDALLKNYGLLYCFRKDMDKVSTFLRTVQCRSVEGSCGFEDPQGDAANKTDTSHHDQDHPTFNKITPNLAEFAFSLYRQLAHQSNSTNIFFSPVSIATAFAMLSLGTKADTHDEILEGLNFNLTEIPEAQIHEGFQELLHTLNQPDSQLQLTTGNGLFLSEGLKLVDKFLEDVKKLYHSEAFTVNFGDTEEAKKQINDYVEKGTQGKIVDLVKELDRDTVFALVNYIFFKGKWERPFEVKDTEEEDFHVDQVTTVKVPMMKRLGMFNIQHCKKLSSWVLLMKYLGNATAIFFLPDEGKLQHLENELTHDIITKFLENEDRRSASLHLPKLSITGTYDLKSVLGQLGITKVFSNGADLSGVTEEAPLKLSKAVHKAVLTIDEKGTEAAGAMFLEAINMSIPPEVKFNKPFVFLMIDQNTKSPLFMGKVVNPTQK	binds
hGH-A6 (ligand, also called hGHRA-NexP) FPTIPLSRLFDNAMLRAHRLNQLAFDTYQEFEEAYIPKEQKYSFLQNPQTSLCPSESIPTPSNKEETQQKSNLELLRISLLLIQSWLEPVQFLRSVFANSLVYGASDSNVYDLLKDLEEKIQTLMGRLEDGSPRTGQIFKQTYSKFDTNSHNDDALLKNYGLLYCFRKDMDKVSTYLRIVQCRSVEGSCGFEDPQGDAANKTDTSHHDQDHPTFNKITPNLAEFAFSLYRQLAHQSNSTNIFFSPVSIATAFAMLSLGTKADTHDEILEGLNFNLTEIPEAQIHEGFQELLHTLNQPDSQLQLTTGNGLFLSEGLKLVDKFLEDVKKLYHSEAFTVNFGDTEEAKKQINDYVEKGTQGKIVDLVKELDRDTVFALVNYIFFKGKWERPFEVKDTEEEDFHVDQVTTVKVPMMKRLGMFNIQHCKKLSSWVLLMKYLGNATAIFFLPDEGKLQHLENELTHDIITKFLENEDRRSASLHLPKLSITGTYDLKSVLGQLGITKVFSNGADLSGVTEEAPLKLSKAVHKAVLTIDEKGTEAAGAMFLEAINMSIPPEVKFNKPFVFLMIDQNTKSPLFMGKVVNPTQK	binds
hGH-A7 (ligand, also called hGHRA-NexP) FPTIPLSRLFDNAMLRAHRLNQLAFDTYQEFEEAYIPKEQKYSFLQNPQTSLCPSESIPTPSNKEETQQKSNLELLRISLLLIQSWLEPVQFLRSVFANSLVYGASDSNVYDLLKDLEEKIQTLMGRLEDGSPRTGQIFKQTYSKFDTNSHNDDALLKNYGLLYCFNKDMSKVSTYLRIVQCRSVEGSCGFEDPQGDAANKTDTSHHDQDHPTFNKITPNLAEFAFSLYRQLAHQSNSTNIFFSPVSIATAFAMLSLGTKADTHDEILEGLNFNLTEIPEAQIHEGFQELLHTLNQPDSQLQLTTGNGLFLSEGLKLVDKFLEDVKKLYHSEAFTVNFGDTEEAKKQINDYVEKGTQGKIVDLVKELDRDTVFALVNYIFFKGKWERPFEVKDTEEEDFHVDQVTTVKVPMMKRLGMFNIQHCKKLSSWVLLMKYLGNATAIFFLPDEGKLQHLENELTHDIITKFLENEDRRSASLHLPKLSITGTYDLKSVLGQLGITKVFSNGADLSGVTEEAPLKLSKAVHKAVLTIDEKGTEAAGAMFLEAINMSIPPEVKFNKPFVFLMIDQNTKSPLFMGKVVNPTQK	binds
hGH-A8 (ligand, also called hGHRA-NexP) FPTIPLSRLFDNAMLRADRLNQLAFDTYQEFEEAYIPKEQKYSFLQNPQTSLCFSESIPTPSNREETQQKSNLELLRISLLLIQSWLEPVQFLRSVFANSLVYGASDSNVYDLLKDLEEKIQTLMGRLEDGSPRTGQIFKQTYSKFDTNSHNDDALLKNYGLLYCFNADMSRVSTFLRTVQCRSVEGSCGFEDPQGDAANKTDTSHHDQDHPTFNKITPNLAEFAFSLYRQLAHQSNSTNIFFSPVSIATAFAMLSLGTKADTHDEILEGLNFNLTEIPEAQIHEGFQELLHTLNQPDSQLQLTTGNGLFLSEGLKLVDKFLEDVKKLYHSEAFTVNFGDTEEAKKQINDYVEKGTQGKIVDLVKELDRDTVFALVNYIFFKGKWERPFEVKDTEEEDFHVDQVTTVKVPMMKRLGMFNIQHCKKLSSWVLLMKYLGNATAIFFLPDEGKLQHLENELTHDIITKFLENEDRRSASLHLPKLSITGTYDLKSVLGQLGITKVFSNGADLSGVTEEAPLKLSKAVHKAVLTIDEKGTEAAGAMFLEAINMSIPPEVKFNKPFVFLMIDQNTKSPLFMGKVVNPTQK	binds
hGH-A9 (ligand, also called hGHRA-NexP) FPTIPLSRLFDNAMLRADRLNQLAFDTYQEFEEAYIPKEQKYSFLKNPQTSLCFSESIPTPSNREETQQKSNLELLRISLLLIQSWLEPVQFLRSVFANSLVYGASDSNVYDLLKDLEEKIQTLMGRLEDGSPRTGQIFKQTYSKFDTNSHNDDALLKNYGLLYCFRKDMDKVSTFLRTVQCRSVEGSCGFEDPQGDAANKTDTSHHDQDHPTFNKITPNLAEFAFSLYRQLAHQSNSTNIFFSPVSIATAFAMLSLGTKADTHDEILEGLNFNLTEIPEAQIHEGFQELLHTLNQPDSQLQLTTGNGLFLSEGLKLVDKFLEDVKKLYHSEAFTVNFGDTEEAKKQINDYVEKGTQGKIVDLVKELDRDTVFALVNYIFFKGKWERPFEVKDTEEEDFHVDQVTTVKVPMMKRLGMFNIQHCKKLSSWVLLMKYLGNATAIFFLPDEGKLQHLENELTHDIITKFLENEDRRSASLHLPKLSITGTYDLKSVLGQLGITKVFSNGADLSGVTEEAPLKLSKAVHKAVLTIDEKGTEAAGAMFLEAINMSIPPEVKFNKPFVFLMIDQNTKSPLFMGKVVNPTQK	binds
hGH-A10 (ligand, also called hGHRA-NexP) EDPQGDAANKTDTSHHDQDHPTFNKITPNLAEFAFSLYRQLAHQSNSTNIFFSPVSIATAFAMLSLGTKADTHDEILEGLNFNLTEIPEAQIHEGFQELLHTLNQPDSQLQLTTGNGLFLSEGLKLVDKFLEDVKKLYHSEAFTVNFGDTEEAKKQINDYVEKGTQGKIVDLVKELDRDTVFALVNYIFFKGKWERPFEVKDTEEEDFHVDQVTTVKVPMMKRLGMFNIQHCKKLSSWVLLMKYLGNATAIFFLPDEGKLQHLENELTHDIITKFLENEDRRSASLHLPKLSITGTYDLKSVLGQLGITKVFSNGADLSGVTEEAPLKLSKAVHKAVLTIDEKGTEAAGAMFLEAINMSIPPEVKFNKPFVFLMIDQNTKSPLFMGKVVNPTQKFPTIPLSRLFDNAMLRAHRLNQLAFDTYQEFEEAYIPKEQKYSFLQNPQTSLCPSESIPTPSNKEETQQKSNLELLRISLLLIQSWLEPVQFLRSVFANSLVYGASDSNVYDLLKDLEEKIQTLMGRLEDGSPRTGQIFKQTYSKFDTNSHNDDALLKNYGLLYCFNKDMSKVSTYLRIVQCRSVEGSCGF	binds
hGH-A11 (ligand, also called hGHRA-NexP) EDPQGDAANKTDTSHHDQDHPTFNKITPNLAEFAFSLYRQLAHQSNSTNIFFSPVSIATAFAMLSLGTKADTHDEILEGLNFNLTEIPEAQIHEGFQELLHTLNQPDSQLQLTTGNGLFLSEGLKLVDKFLEDVKKLYHSEAFTVNFGDTEEAKKQINDYVEKGTQGKIVDLVKELDRDTVFALVNYIFFKGKWERPFEVKDTEEEDFHVDQVTTVKVPMMKRLGMFNIQHCKKLSSWVLLMKYLGNATAIFFLPDEGKLQHLENELTHDIITKFLENEDRRSASLHLPKLSITGTYDLKSVLGQLGITKVFSNGADLSGVTEEAPLKLSKAVHKAVLTIDEKGTEAAGAMFLEAINMSIPPEVKFNKPFVFLMIDQNTKSPLFMGKVVNPTQKFPTIPLSRLFDNAMLRADRLNQLAFDTYQEFEEAYIPKEQKYSFLKNPQTSLCFSESIPTPSNREETQQKSNLELLRISLLLIQSWLEPVQFLRSVFANSLVYGASDSNVYDLLKDLEEKIQTLMGRLEDGSPRTGQIFKQTYSKFDTNSHNDDALLKNYGLLYCFRKDMDKVSTFLRTVQCRSVEGSCGF	binds
